Experimental data reported in publication PMC8436130.

Chains of the proteins cited; added tags and fusions are not shown. Residues count along the entry.
UniProt Q86WV6: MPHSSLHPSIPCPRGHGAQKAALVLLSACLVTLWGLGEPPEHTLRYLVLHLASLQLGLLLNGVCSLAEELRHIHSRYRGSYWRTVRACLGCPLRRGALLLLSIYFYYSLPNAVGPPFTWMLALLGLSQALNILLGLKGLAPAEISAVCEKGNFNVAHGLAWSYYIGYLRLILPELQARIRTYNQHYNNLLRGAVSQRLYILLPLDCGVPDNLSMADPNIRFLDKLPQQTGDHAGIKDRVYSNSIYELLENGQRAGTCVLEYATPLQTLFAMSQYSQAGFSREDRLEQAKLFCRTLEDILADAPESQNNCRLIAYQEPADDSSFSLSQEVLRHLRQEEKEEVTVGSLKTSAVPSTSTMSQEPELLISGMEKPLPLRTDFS
UniProt P21127: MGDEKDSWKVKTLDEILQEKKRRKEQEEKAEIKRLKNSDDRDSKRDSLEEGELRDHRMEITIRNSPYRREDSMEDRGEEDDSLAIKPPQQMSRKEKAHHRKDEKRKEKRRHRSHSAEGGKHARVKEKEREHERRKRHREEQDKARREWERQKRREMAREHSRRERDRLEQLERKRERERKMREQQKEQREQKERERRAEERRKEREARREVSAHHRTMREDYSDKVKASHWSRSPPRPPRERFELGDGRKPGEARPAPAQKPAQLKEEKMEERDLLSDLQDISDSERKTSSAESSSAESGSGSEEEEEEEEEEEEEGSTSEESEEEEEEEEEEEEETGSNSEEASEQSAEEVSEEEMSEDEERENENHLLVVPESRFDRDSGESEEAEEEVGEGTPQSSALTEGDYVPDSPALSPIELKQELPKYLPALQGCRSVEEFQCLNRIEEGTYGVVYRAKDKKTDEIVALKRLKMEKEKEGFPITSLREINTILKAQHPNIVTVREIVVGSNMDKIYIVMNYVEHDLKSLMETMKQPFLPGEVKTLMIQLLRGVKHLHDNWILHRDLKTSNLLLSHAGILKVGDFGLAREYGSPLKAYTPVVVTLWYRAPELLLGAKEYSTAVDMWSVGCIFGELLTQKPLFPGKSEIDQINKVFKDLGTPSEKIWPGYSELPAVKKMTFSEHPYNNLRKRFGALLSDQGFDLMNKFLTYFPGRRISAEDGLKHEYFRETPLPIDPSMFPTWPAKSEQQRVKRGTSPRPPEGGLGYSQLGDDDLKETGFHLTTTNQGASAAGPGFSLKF
UniProt Q7Z4V5: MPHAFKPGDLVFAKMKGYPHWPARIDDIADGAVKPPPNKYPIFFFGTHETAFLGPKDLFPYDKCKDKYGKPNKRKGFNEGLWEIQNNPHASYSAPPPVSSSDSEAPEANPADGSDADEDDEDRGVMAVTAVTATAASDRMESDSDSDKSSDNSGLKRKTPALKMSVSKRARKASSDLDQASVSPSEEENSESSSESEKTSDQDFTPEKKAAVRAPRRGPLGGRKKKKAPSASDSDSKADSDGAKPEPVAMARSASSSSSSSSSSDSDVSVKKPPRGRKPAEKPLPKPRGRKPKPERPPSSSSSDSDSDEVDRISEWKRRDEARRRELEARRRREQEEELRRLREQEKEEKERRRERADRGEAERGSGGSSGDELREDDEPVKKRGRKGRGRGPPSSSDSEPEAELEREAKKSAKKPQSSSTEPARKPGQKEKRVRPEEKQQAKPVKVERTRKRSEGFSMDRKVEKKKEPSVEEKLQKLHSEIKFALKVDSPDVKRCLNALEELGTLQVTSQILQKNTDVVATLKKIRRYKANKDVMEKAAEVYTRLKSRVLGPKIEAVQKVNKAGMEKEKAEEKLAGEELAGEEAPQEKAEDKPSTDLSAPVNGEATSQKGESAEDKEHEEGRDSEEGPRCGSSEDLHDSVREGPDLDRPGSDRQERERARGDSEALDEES
UniProt P16403: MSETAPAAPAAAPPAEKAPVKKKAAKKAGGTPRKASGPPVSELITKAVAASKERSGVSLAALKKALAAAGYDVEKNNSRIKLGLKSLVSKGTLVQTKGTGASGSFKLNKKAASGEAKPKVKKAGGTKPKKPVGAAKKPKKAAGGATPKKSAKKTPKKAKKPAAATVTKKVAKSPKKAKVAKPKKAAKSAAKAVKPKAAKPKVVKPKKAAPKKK
UniProt P16402: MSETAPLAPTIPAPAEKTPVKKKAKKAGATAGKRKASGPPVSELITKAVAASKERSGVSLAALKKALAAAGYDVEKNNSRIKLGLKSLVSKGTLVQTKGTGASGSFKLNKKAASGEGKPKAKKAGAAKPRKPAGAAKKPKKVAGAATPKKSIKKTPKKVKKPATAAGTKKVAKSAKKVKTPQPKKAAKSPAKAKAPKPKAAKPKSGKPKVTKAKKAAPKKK
UniProt P38159: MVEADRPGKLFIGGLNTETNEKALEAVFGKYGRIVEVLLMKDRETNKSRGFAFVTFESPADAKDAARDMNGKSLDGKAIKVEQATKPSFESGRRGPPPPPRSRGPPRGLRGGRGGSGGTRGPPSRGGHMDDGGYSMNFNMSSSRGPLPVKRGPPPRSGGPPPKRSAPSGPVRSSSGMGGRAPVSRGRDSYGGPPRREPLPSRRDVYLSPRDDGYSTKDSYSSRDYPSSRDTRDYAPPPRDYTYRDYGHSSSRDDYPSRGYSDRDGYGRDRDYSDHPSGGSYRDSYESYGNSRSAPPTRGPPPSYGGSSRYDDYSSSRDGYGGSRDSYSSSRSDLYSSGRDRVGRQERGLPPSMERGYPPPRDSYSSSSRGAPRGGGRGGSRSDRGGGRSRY
UniProt P02545, residues 1-646: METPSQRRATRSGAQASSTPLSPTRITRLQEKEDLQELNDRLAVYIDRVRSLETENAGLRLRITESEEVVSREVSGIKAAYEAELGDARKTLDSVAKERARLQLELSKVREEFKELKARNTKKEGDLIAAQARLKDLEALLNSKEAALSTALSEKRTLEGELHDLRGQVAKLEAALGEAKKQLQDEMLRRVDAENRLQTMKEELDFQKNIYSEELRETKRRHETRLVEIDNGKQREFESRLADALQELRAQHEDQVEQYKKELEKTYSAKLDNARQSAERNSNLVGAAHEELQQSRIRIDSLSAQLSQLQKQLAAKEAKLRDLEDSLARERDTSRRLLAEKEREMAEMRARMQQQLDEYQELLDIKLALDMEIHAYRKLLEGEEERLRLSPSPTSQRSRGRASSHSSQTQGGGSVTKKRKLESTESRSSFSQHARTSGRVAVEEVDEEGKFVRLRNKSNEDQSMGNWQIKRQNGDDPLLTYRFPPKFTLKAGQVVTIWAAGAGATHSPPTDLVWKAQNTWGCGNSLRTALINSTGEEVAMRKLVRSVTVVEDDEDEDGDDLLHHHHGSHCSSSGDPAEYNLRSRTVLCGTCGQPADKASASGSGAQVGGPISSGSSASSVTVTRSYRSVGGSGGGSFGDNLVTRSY
UniProt P51608: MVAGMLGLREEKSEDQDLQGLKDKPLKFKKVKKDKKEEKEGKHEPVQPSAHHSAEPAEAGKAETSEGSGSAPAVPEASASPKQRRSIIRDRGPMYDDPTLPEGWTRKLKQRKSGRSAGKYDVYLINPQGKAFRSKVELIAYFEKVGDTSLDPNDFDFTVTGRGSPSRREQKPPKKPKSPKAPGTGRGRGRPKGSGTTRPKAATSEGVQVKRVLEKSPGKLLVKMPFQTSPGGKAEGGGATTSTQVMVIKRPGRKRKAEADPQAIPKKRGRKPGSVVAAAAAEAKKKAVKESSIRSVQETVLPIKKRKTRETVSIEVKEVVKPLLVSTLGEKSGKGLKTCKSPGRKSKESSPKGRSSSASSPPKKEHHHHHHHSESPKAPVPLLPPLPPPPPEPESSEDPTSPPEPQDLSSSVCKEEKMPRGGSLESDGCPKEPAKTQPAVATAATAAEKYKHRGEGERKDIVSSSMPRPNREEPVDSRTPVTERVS
UniProt O00255: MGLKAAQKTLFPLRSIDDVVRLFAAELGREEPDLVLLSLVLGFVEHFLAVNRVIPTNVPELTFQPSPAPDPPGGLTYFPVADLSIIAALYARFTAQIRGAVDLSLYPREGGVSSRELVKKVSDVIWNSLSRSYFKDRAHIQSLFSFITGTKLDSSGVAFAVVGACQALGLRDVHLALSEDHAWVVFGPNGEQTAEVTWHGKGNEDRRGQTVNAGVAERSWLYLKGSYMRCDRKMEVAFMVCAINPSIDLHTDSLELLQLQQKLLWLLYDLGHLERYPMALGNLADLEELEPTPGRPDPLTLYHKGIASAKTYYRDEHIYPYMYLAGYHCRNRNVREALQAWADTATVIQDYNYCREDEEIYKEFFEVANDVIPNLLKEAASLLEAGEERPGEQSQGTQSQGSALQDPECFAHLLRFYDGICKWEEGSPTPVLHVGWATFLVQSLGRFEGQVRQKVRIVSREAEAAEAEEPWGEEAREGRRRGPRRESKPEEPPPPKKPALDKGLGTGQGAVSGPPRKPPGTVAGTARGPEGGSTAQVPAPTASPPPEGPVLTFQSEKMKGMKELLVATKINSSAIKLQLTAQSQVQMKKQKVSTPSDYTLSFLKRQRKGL
UniProt P55081: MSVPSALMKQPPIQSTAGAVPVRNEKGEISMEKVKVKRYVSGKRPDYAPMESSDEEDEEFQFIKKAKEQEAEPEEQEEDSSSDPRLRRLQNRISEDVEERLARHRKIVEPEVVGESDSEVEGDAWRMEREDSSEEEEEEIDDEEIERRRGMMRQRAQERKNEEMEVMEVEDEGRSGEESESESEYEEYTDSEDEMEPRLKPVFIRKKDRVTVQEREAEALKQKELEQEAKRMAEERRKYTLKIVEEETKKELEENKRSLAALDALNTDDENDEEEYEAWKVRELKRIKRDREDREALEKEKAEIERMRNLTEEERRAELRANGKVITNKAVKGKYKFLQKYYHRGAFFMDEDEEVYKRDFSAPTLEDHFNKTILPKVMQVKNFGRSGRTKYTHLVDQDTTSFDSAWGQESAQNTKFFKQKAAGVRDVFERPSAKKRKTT
UniProt O75475: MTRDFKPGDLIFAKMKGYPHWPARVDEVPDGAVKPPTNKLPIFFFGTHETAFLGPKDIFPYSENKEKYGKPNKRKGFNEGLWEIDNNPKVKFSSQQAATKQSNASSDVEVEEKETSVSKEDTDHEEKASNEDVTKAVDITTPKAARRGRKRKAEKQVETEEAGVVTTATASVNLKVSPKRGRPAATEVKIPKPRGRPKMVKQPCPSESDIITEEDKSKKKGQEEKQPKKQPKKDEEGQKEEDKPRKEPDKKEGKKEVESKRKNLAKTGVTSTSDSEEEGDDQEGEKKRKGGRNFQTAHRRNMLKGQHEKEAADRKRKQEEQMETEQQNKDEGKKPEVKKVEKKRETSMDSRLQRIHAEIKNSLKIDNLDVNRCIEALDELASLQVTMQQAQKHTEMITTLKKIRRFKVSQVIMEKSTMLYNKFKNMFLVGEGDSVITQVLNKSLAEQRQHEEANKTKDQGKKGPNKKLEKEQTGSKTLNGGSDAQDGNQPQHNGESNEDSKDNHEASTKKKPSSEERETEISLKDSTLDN
UniProt Q96E39: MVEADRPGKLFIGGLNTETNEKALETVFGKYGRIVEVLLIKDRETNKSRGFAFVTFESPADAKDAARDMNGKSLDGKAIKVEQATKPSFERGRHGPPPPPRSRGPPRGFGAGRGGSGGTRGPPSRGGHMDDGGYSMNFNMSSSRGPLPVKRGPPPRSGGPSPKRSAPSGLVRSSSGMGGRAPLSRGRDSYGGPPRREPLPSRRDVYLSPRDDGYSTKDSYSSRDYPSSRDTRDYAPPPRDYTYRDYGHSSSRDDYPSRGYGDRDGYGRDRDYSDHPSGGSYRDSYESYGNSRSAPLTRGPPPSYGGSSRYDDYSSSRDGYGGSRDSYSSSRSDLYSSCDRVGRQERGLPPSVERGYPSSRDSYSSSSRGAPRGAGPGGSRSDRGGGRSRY
UniProt P08621: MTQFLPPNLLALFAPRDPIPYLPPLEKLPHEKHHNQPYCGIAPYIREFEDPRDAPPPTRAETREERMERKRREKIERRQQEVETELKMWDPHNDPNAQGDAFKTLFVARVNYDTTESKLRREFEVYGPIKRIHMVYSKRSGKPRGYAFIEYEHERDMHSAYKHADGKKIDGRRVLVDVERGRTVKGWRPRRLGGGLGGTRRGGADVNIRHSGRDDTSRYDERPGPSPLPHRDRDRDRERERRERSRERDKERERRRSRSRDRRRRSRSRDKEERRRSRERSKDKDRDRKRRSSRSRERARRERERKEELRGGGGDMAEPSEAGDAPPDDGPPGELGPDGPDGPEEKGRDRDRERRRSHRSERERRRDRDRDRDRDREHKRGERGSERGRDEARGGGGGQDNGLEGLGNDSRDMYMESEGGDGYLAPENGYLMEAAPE

biological target: STimulator of INterferon Genes (STING) fused to GFP (UniProt Q86WV6); test: affinity purification with mass spectrometry; nuclear envelopes isolated from HEK293T cells expressing STING-GFP, reversibly cross-linked with ortho-phenanthroline copper, resuspended in RIPA and sonicated, immunoprecipitated with GFP antibodies on Protein A-sepharose, released with 50 mM DTT, tandem mass spectrometry; mock-transfected cells as control

Row | binding | Substance
1 | binds | BAZ2A (from UniProt Q9UIF9 1-1905)
2 | binds | BRD2 (from UniProt P25440 1-801)
3 | binds | CD11B (from UniProt P21127 1-795)
4 | binds | CKAP4 (from UniProt Q07065 1-602)
5 | binds | DDX5 (from UniProt P17844 1-614)
6 | binds | DDX41 (from UniProt Q9UJV9 1-622)
7 | binds | GTF2I (from UniProt P78347 1-998)
8 | binds | HDGR2 (from UniProt Q7Z4V5 1-671)
9 | binds | HIST1H1C (from UniProt P16403 1-213)
10 | binds | HIST1H1D (from UniProt P16402 1-221)
11 | binds | HNRNPG (from UniProt P38159 1-391)
12 | binds | HNRNPK (from UniProt P61978 1-463)
13 | binds | HP1B3 (from UniProt Q5SSJ5 1-553)
14 | binds | HSPA1A (from UniProt P0DMV8 1-641)
15 | binds | KIAA0020 (from UniProt Q15397 1-648)
16 | binds | Lamin A (from UniProt P02545 1-646)
17 | binds | MECP2 (from UniProt P51608 1-486)
18 | binds | MEN1 (from UniProt O00255 1-610)
19 | binds | MFAP1 (from UniProt P55081 1-439)
20 | binds | PSIP1 (from UniProt O75475 1-530)
21 | binds | RBMXL1 (from UniProt Q96E39 1-390)
22 | binds | SNRNP70 (from UniProt P08621 1-437)
23 | binds | SYNCRIP/hnRNP Q (from UniProt O60506 1-623)
24 | binds | TCERG1 (from UniProt O14776 1-1098)
25 | binds | major histone K4 methyltransferase, MLL1 (from UniProt Q03164 1-3969)

These are yes or no findings as the source states them, for the method shown. Binding seen in cells or lysates may run through a third protein. Here binding means that the protein was enriched with, or labelled near, the bait; the list need not be complete.
